A short description of this assay: qHTS Assay to Find Inhibitors of Chronic Active B-Cell Receptor Signaling. The following applies: ABC-DLBCL IkBa-CBG/CBR reporter, luminescence ratio (green luciferase fused to IkBa over red control in TMD8 lymphoma cells), 4 h. A digest of the protocol: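 Doxycycline induced both beetle luciferases in TMD8 lymphoma cells; IKK-driven degradation limits the IkappaBalpha-fused green signal, while red luminescence normalises for cell number and nonspecific effects. Compounds tested up to 46 uM, 4 hrs.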

[1] abbreviates: measured here: CBR red luminescence, cell number.
Where [2] appears, read: measured here: IkBa-CBG green luminescence.

The list shows a part of the results. Further columns of the screen follow, without active or inactive calls. Compounds called inactive in the main read-out are mostly missing here. Words in brackets tell the shape of the fitted curve; partial curves, single points and poor fits give uncertain potencies.

A word on the AC50: it is the midpoint of the concentration-response curve, whichever way the signal moves. As for `COc1ccc(S(=O)(=O)N2Cc3ccccc3CC2C(=O)Nc2nccs2)cc1` (stereo not given), the AC50 under setting [1] is 3.98 µM [rising, single point].

Consider `COc1cccc(C(=O)N2N=C(c3ccccn3)CC2(O)C(F)(F)F)c1` (stereo not given), for which the AC50 under setting [1] was 35.5 µM [falling, single point].

For `Cc1ccc(CN=c2c([N+](=O)[O-])nn(-c3cccc(C)c3)n2O)cc1`, the AC50 under setting [2] was 2.82 µM [rising, full curve, poor fit].

`O=C(N/N=C/c1cc(Cl)ccc1O)C(=O)Nc1ccccc1OC(F)(F)C(F)F`: the AC50 is 29.1 µM [falling, single point] under setting [1] and 6.51 µM [falling, single point] under setting [2].

On to `CSCCC(NC(=O)c1ccccc1)C(=O)NCCCn1nc(C)cc1C` (stereo not given), for which, under setting [1], the AC50 was 29.1 µM [rising, single point].

For the compound `COc1ccc(CCNc2cc(C)nc3c(-c4ccccc4)c(C)nn23)cc1OC`, under setting [1], the AC50 was 29.1 µM [falling, single point].

With `COc1ccc(C(=O)C2CCCN(Cc3c(C)[nH]c4ccccc34)C2)c(OC)c1` (stereo not given), under setting [1], the concentration at half-maximal activity (AC50) is 35.5 µM [falling, single point].

Turning to `O=C(O)c1cccc(NC(=S)NC(=O)c2cccc(OCc3ccccc3)c2)c1`, the AC50 under setting [1] is 35.5 µM [falling, single point].

Turning to `CCOC(=O)COc1ccc(S(=O)(=O)c2ccc(OCC(=O)OCC)cc2)cc1`, under setting [1], the AC50 was 16.4 µM [falling, single point].

As to `Clc1ccccc1CNc1ncnc2nc[nH]c12`, the AC50 under setting [1] was 7.31 µM [falling, partial curve].

`CCc1nnc(NC(=O)CCC(=O)N2CCN(Cc3cc(Cl)ccc3OC)CC2)s1`: under setting [1], the AC50 is 25.1 µM [falling, single point].

Take `Cc1ccc2cc(CN(C)S(C)(=O)=O)c(=O)[nH]c2c1`: under setting [1], the AC50 was 7.94 µM [rising, partial curve, poor fit].

For `CC(=O)Nc1ccc(NC(=O)c2ccc(S(=O)(=O)N(C)c3ccccc3)cc2)cc1`, the AC50 under setting [1] was 25.9 µM [rising, single point].

In the case of `S=c1[nH]nc(COc2ccc(Cl)cc2)o1`, under setting [1], the AC50 is 10 µM [falling, partial curve, poor fit].

In the case of `CCCc1cc(=O)oc2c(C)c(OCC(=O)NCCCn3ccnc3)ccc12`, the AC50 under setting [1] was 35.5 µM [rising, single point].

`Cc1[nH]n(-c2ccc([N+](=O)[O-])cc2)c(=O)c1C=NCCc1ccc(S(N)(=O)=O)cc1`: the AC50 under setting [1] was 11.2 µM [falling, single point].

Regarding `COc1cc(OC)c(C2=NOC(C(=O)NCc3cccs3)C2)cc1Cl` (stereo not given), the AC50 is 35.5 µM [rising, single point] under setting [1] and 22.4 µM [falling, single point] under setting [2].

Regarding `COc1ccccc1/C=C1\SC(=S)N(CCC(=O)NNC(=O)c2ccccc2OC)C1=O`, the AC50 under setting [1] is 3.55 µM [falling, full curve, poor fit].

Regarding `Cc1ccc(NC(=O)[C@H](C)NC(=O)C2CCN(C(=O)[C@@H](N)CC(C)C)CC2)cc1`, under setting [1], the AC50 is 31.6 µM [rising, single point].

As for `O=C(CCCn1c(SCC(=O)Nc2ccccc2Cl)nc2ccccc2c1=O)NCC1CCCO1` (stereo not given), the AC50 under setting [1] was 10 µM [falling, partial curve, poor fit].

As to `O=C(O)c1cccc(-c2nnn(Cc3ccccc3Cl)n2)c1`, the AC50 under setting [1] was 0.651 µM [rising, full curve, poor fit].

As for `C[C@@]12C(=O)Nc3cc(Cl)ccc3C(=O)N1[C@H]1c3cc(Cl)ccc3OC[C@@H]1[C@@H]2c1ccccc1`, the AC50 under setting [1] was 2.91 µM [falling, full curve].

`COc1cc(NC(=S)NC(=O)c2cccs2)ccc1NC(=O)C(C)C`: under setting [1], the concentration at half-maximal activity (AC50) was 3.98 µM [falling, full curve, poor fit].

With `Cc1cccc(C)c1NC(=O)c1nc(S(=O)(=O)Cc2ccccc2)ncc1Cl`, the concentration at half-maximal activity (AC50) under setting [1] is 35.5 µM [falling, single point].

`O=C(NC1CCCC1)C(c1ccsc1)N(Cc1ccco1)C(=O)Cc1cccs1` (stereo not given): the AC50 under setting [1] is 35.5 µM [falling, single point].

With `O=C(CN1C(=O)COc2ccc(Cl)cc21)Nc1nccs1`, under setting [1], the AC50 was 20.6 µM [rising, single point].

On to `CCc1ccc(/C=C(\Cl)c2nc3cc(Cl)ccc3c(=O)[nH]2)cc1`, for which, under setting [1], the AC50 is 23.1 µM [falling, single point].

With `CC1(OC(=O)CCc2ccccc2)C(=O)C=C2C=C(c3ccc(C#N)cc3)N(C3CCCCC3)C=C2C1=O` (stereo not given), the AC50 under setting [1] was 5.62 µM [rising, single point].

Turning to `CC(=O)Nc1nnc(SCC(=O)c2ccc(F)cc2)s1`, the AC50 under setting [1] is 20 µM [falling, single point].

`O=C1OC(c2ccc(Cl)cc2)=N/C1=C\C=C\c1ccco1`: the AC50 under setting [1] was 35.5 µM [falling, single point].

`CCOc1ccccc1NC(=O)Nc1cc(S(=O)(=O)N(C)C)ccc1C`: the AC50 under setting [1] is 6.31 µM [rising, partial curve, poor fit].

Turning to `O=C(CCCN1C(=O)/C(=C\c2ccccc2)SC1=S)Nc1ccc(O)cc1C(=O)O`, under setting [1], the AC50 was 3.98 µM [falling, partial curve].

As to `CCN(CC)CCCN(Cc1cc2cc(OC)c(OC)cc2[nH]c1=O)C(=O)Nc1ccccc1`, the AC50 under setting [1] is 9.2 µM [rising, partial curve, poor fit].

As to `Cc1oncc1C(=O)NC(C)C`, under setting [1], the AC50 is 29.1 µM [rising, single point].

As for `CCOc1ccc(C(c2c(C)[nH][nH]c2=O)c2c(C)[nH][nH]c2=O)cc1OCC`, under setting [1], the AC50 is 29.1 µM [falling, single point].

As for `Cn1ncc(Br)c1NC(=O)Nc1ccc(OC(F)(F)F)cc1`, the AC50 under setting [1] was 0.708 µM [rising, full curve, poor fit].

As for `CCOc1ccccc1NC(=O)CSc1nnc(NC(=O)c2ccco2)s1`, the half-maximal activity concentration (AC50) under setting [1] was 0.224 µM [falling, full curve, poor fit].

As for `O=c1cc(CSc2ccccn2)c2ccccc2[nH]1`, the AC50 under setting [1] was 2.59 µM [falling, partial curve, poor fit].

Turning to `Cc1ccccc1S(=O)(=O)Cc1ccc(C(=O)NC2CCCCCC2)o1`, under setting [1], the AC50 is 0.447 µM [falling, full curve, poor fit].

In the case of `CC(C)(C)c1nc(NC(=O)Nc2ccccc2)sc1Br`, the AC50 under setting [1] is 35.5 µM [falling, single point].

`COc1ccc(OC)c(S(=O)(=O)Nc2c(NC3CCCCC3)c3ccccc3oc2=O)c1`: the AC50 under setting [1] is 20 µM [falling, partial curve, poor fit].

For `CCOC(=O)C1CCN(C(=O)CCCOc2ccccc2)CC1`, the AC50 under setting [1] is 32.6 µM [falling, single point].

Turning to `CCCCCCNC(=O)CCc1nc2cccnc2n1Cc1ccc(OC)cc1`, the AC50 under setting [1] is 11.2 µM [falling, single point].

Turning to `CCc1nnc(NC(=O)CSc2nc3c(c(=O)n2CC)SC(C)C3)s1` (stereo not given), the AC50 under setting [1] is 32.6 µM [falling, single point].

On to `Cc1ccc2cc(CCNC(=O)c3cccc([N+](=O)[O-])c3)c(=O)[nH]c2c1`, for which, under setting [1], the AC50 is 35.5 µM [falling, partial curve, poor fit].

In the case of `Cc1cccc(C(=O)NNC(=O)c2ccccc2C)c1`, the AC50 under setting [1] was 14.1 µM [falling, partial curve, poor fit].

Consider `Cc1sc2nc(CN(Cc3cccs3)C(=O)NC3CCCCC3)[nH]c(=O)c2c1C`, for which the AC50 under setting [1] is 7.08 µM [falling, partial curve].

`O=C(CN1C(=O)NC(c2ccccc2)(c2ccccc2)C1=O)NCC(=O)Nc1ccc(F)cc1`: the AC50 under setting [1] was 9.2 µM [rising, partial curve, poor fit].

`COc1ccc(CCNC(=O)c2coc3ccccc3c2=O)cc1OC`: the AC50 under setting [1] was 3.98 µM [falling, partial curve, poor fit].

Turning to `Cc1ccc(C)c(N2CCN(C(=O)CCCCCn3c(=S)[nH]c4ccc(N5CCOCC5)cc4c3=O)CC2)c1`, under setting [1], the AC50 is 7.94 µM [falling, partial curve, poor fit].

For the compound `COc1cc(-c2noc(CCCC(=O)Nc3ccc(C(N)=O)cc3)n2)cc(OC)c1OC`, under setting [2], the AC50 is 12.6 µM [falling, partial curve, poor fit].

On to `CCOC(=O)Cn1c(=O)n(CC(=O)OCC)c2ccccc21`, for which the AC50 under setting [1] was 1.84 µM [rising, partial curve, poor fit].

For the compound `Fc1ccc2cc(-c3cccnc3)ncc2c1`, under setting [1], the AC50 is 32.6 µM [rising, partial curve, poor fit].

For `CCCCCCn1nc(C(=O)Nc2nc3c(s2)CCCC3)c2ccccc2c1=O`, the AC50 under setting [1] is 1.3 µM [rising, full curve].

Regarding `Cc1cc(S(=O)(=O)N2CCN(CC(=O)N(C)Cc3ccccc3)CC2)ccc1Br`, the AC50 under setting [1] was 20.6 µM [falling, partial curve].

On to `O=C(COC(=O)COc1cc(Cl)c(Cl)cc1Cl)NC1CC1`, for which the half-maximal activity concentration (AC50) under setting [1] is 23.1 µM [rising, partial curve, poor fit].

In the case of `Cc1ccc(C)c(S(=O)(=O)N(C(=O)c2ccncc2)c2ccc(OC(=O)c3ccncc3)cc2)c1`, the AC50 under setting [1] was 8.91 µM [falling, partial curve, poor fit].

In the case of `CCCN1CCn2c3c(c4cc(Br)ccc42)CCCC31` (stereo not given), under setting [1], the AC50 is 35.5 µM [rising, partial curve, poor fit].

As to `C=CCOC(=O)C1=C(C)NC(=O)NC1c1cc(Cl)cc(Cl)c1OC` (stereo not given), the AC50 under setting [1] was 22.4 µM [falling, partial curve, poor fit].

Consider `CN(C)S(=O)(=O)c1ccc(Cl)c(NC(=O)COC(=O)c2ccc(O)cc2)c1`, for which the AC50 under setting [1] was 35.5 µM [falling, single point] and the AC50 under setting [2] was 15.8 µM [rising, partial curve, poor fit].

On to `Cc1ccc(OC(C)C(=O)Nc2ccc3c(c2)n(C)c(=O)n3C)c(C)c1` (stereo not given), for which the AC50 was 11.2 µM [rising, partial curve] under setting [1] and 12.6 µM [falling, partial curve, poor fit] under setting [2].

These data come from PubChem BioAssay AID493014 (National Center for Advancing Translational Sciences (NCATS), 2011).
